Whole data set: some 33,000 sequences, median “E-score (-0.5 to 0.5)” near -0.016, cut for the highest 2% near 0.3. The list shows a part of the results.
Target: T1, Yer184c (UniProt P39961)
T1 sequence: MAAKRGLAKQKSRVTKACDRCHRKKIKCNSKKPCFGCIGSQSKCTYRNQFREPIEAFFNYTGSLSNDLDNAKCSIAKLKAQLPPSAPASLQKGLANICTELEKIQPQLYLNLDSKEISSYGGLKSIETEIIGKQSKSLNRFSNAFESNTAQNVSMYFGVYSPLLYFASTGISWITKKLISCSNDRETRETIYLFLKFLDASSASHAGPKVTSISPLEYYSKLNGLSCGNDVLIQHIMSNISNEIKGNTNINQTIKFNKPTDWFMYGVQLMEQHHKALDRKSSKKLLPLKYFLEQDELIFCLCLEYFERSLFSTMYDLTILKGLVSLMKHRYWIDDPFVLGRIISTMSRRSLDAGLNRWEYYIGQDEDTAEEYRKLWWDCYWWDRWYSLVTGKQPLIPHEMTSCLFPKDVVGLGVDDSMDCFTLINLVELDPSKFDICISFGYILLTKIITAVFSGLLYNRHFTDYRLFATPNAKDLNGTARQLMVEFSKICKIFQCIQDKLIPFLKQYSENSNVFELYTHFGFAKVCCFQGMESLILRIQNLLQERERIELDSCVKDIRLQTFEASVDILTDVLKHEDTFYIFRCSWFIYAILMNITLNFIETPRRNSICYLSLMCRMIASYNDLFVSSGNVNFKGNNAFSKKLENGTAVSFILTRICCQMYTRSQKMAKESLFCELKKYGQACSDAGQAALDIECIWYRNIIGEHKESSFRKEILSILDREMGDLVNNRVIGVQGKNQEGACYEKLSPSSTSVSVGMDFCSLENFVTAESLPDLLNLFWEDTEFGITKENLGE
Experiment: PBM E-score (8-mer binding enrichment) (E-score (-0.5 to 0.5)); higher = stronger / more preferred TF binding
Settings: protein concentration: 100 nM; construct: GST-full length
Procedure, shortened: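 Full-length yeast transcription factors or their DNA-binding domains, GST-tagged and expressed with PURExpress, were applied at about 100-200 nM to universal all-10-mer Agilent arrays. These arrays had been made double-stranded by primer extension on fresh or once-stripped slides. Detection used fluorescent anti-GST, normalisation used masliner, and E-scores for ungapped eight-base words pooled with reverse complements came from the Universal PBM Analysis Suite.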

Sequence	PBM E-score
ATGCGCGA	-0.0505
ACTGGAGA	-0.0719
ATCACAAG	0.00864
ATCAGCAA	0.0156
AAAGACCC	0.118
ATGCTTGA	0.025
GAAGGCTA	-0.0973
CTATGAAC	0.0391
GCTGAAAA	0.136
AACACCAC	-0.0481
AGTAGTCA	-0.0486
CGGATCCA	0.263
AGAGGACT	-0.298
AGGTTTAC	-0.104
ATCCGATA	0.266
GGGTATCA	-0.0667
CTCCCCTC	-0.186
CACGACAA	-0.0609
AAGTACAA	-0.0462
CTCTTTTC	-0.0404
CTGAGAAA	-0.0692
AACACGAA	0.199
GACGTGTA	-0.0892
CTCCCGGA	0.243
AAGATGCG	0.0137

2 neighbouring records out of the list so far, for reference:
Sequence	PBM E-score
CTATGAAC	0.0391
GCTGAAAA	0.136

More results:

Sequence	PBM E-score
GGCTCAAA	0.204
CCAACCTC	-0.138
ACTCGCCC	-0.232
AAGAGCTA	-0.00838
CTTGGCGA	-0.211
AGACCAAC	-0.108
CAAGGATG	-0.187
GCGATCAC	-0.19
AAAAATAT	0.24
ACACGTTC	-0.193
TGACATCA	-0.0407
ACCATCGA	-0.121
GTCAGCAA	-0.0872
AGCCATTA	0.0764
AAGAAACC	0.129
TAATTAGA	0.149
AATGCCGG	0.35
CATAGGCC	-0.111
CTACATAA	-0.0544
GTTGCAAC	0.0994
TATAACCA	0.0124
CTAAAGTC	-0.0167
CCTGGAGC	-0.322
ACTATTAC	0.139
ACGGCCGG	0.372

Sequence	PBM E-score
ACATTTGA	0.223
TAAGCGAA	0.0677
AATCTTGC	0.206
GCCAGCTA	-0.223
CGGGTGAA	0.243
GGCCGGAC	0.294
CCCGCGCG	0.241
GAGAGAAA	0.0947
GGACCCAA	-0.081
GCTATTCA	0.0897
TAACCGTA	-0.0723
ATCCAGGG	-0.205
AGTCCGGG	0.212
CGTCGCCA	-0.211
CTGCCTAC	0.124
ATTGATTG	0.174
GCTTTAAC	0.0368
ATAAATTG	0.254
CCATTCCC	-0.135
CGTGAACG	-0.101
CTAGGATA	-0.0114
ACGCTATG	-0.221
AAAACGTA	-0.0331
CGTTCACC	-0.0824
GACTTTGC	-0.0657

Sequence	PBM E-score
AAAACATA	0.158
AGTATCTC	0.0414
AATACGTG	0.0311
GACGGATC	0.115
CCGATCAA	0.184
GGATGAAC	0.101
CCCTAAAA	-0.238
GTCGGCCA	-0.145
ACCAAGCG	-0.238
AACGGACT	0.14
ACGGCACA	0.0865
GTCCTCCA	-0.165
ACATCCAA	-0.0302
GTTTATTA	0.225
GGGCGGAA	0.0682
CCTAGGAG	-0.0738
TAATAGTA	0.173
ATCGGAAG	0.211
AAAAGATT	0.094
CAGAGCTA	-0.25
CGCACAAG	-0.0592
GGTGCCTA	-0.0856
CAATACAA	-0.00303
CACATTTC	0.101
CAGGGAGC	-0.304

Rewritten in CSV form: entries from further up.
Sequence,PBM E-score
GACGGATC,0.115
CCCTAAAA,-0.238
ACCAAGCG,-0.238
GTCCTCCA,-0.165
CAGAGCTA,-0.25
CACATTTC,0.101
CAGGGAGC,-0.304

(further entries)

Sequence	PBM E-score
CATAACTA	0.0337
GAGGAGAA	-0.159
CGGGTACG	-0.0897
CTTAGCCA	-0.14
CTCAGTGC	-0.113
CCAGACTA	-0.0362
TACATGTA	0.00046
CCCCCCAC	-0.435
ATGGGACC	-0.27
CCAATTAG	0.0929
AGTAACAC	0.0939
CTAGCGCA	-0.286
CTCGGGAA	0.211
ATCTAATC	0.0898
CTTGAGTA	-0.0342
ACAGAAGG	-0.135
CTAGTAAG	0.0138
ACGCTACT	0.0174
ATTTATAA	0.326
CAGGCAGC	-0.202
AGATCATC	0.0775
ACGAAGAG	-0.023
AGAGCTAA	-0.0157
CCGGATGC	0.331
ATACTCTG	0.006

Sequence	PBM E-score
ATAGTTGA	0.0411
AAGGAGAA	0.00097
CTTGATTC	0.0724
ACCCAACA	-0.227
ATAACACA	0.103
ATTGTTGA	0.141
AAGTAGTG	-0.211
ATGCAAGC	-0.0528
GGTAGCAA	-0.223
ATAGATCA	0.216
AGTTAGAC	0.123
CTGGCAAC	-0.215
AGTCAGAA	-0.0922
TATCTAGA	0.0545
CATGATGG	-0.267
ACAGCCTG	-0.102
CGGCACAC	0.205
GAAGCAGC	-0.0796
AGGTAGCC	-0.123
CATCGGCC	0.115
CATATTGC	-0.252
TCATATAA	0.11
CCACCAGA	-0.229
TAAATTCA	-0.0563
GTACATCA	0.016

Sequence	PBM E-score
ATCGAATA	-0.0754
AGCTGCCT	-0.232
CTCTAGAA	-0.166
GGGAGAGA	-0.325
AGCTTTAG	-0.0783
CCTTGGGC	-0.169
GAATTGGC	-0.0767
ATAAACAT	0.116
GTATGCAA	0.0937
ACCGTGTA	-0.0437
TAAGCTGA	0.0286
CAATCCAC	0.0253
AACCGGTA	0.0801
TAACCTAA	0.077
CTGAAGAA	-0.114
CTCACCAC	-0.195
ATATGAGA	-0.00418
CCCATTAG	-0.347
ACTAATTG	0.0671
GAGAGTGC	-0.191
ACGTCGAG	-0.295
GAACGTGC	-0.198
